## Percent effect of library compounds

The chains behind the UniProt entries cited, without tags or fusion partners. Residues count along the entry.
UniProt P9WFT3, whole entry: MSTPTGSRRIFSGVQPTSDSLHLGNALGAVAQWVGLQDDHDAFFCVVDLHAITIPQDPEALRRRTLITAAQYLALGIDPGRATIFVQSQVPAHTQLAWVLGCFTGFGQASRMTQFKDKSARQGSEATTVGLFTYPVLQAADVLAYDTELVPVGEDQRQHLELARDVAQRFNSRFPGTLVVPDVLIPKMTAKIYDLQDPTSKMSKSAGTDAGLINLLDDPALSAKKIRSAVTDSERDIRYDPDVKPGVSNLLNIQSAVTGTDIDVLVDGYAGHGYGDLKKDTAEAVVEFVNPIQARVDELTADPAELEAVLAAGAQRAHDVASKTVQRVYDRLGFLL
UniProt P9WPC5, whole entry: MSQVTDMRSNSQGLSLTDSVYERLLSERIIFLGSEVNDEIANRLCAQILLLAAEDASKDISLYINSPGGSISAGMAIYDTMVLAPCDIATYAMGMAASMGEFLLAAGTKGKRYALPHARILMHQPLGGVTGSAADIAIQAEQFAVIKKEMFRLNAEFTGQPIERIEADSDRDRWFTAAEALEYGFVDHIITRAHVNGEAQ
UniProt P9WPC3, whole entry partner: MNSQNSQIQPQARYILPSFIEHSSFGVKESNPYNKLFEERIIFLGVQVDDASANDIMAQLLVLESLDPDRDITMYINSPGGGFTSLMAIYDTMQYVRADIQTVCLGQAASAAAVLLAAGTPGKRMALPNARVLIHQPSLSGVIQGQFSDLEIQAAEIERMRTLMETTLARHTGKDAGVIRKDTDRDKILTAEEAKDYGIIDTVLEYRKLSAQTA
UniProt Q4DA54, 1-478: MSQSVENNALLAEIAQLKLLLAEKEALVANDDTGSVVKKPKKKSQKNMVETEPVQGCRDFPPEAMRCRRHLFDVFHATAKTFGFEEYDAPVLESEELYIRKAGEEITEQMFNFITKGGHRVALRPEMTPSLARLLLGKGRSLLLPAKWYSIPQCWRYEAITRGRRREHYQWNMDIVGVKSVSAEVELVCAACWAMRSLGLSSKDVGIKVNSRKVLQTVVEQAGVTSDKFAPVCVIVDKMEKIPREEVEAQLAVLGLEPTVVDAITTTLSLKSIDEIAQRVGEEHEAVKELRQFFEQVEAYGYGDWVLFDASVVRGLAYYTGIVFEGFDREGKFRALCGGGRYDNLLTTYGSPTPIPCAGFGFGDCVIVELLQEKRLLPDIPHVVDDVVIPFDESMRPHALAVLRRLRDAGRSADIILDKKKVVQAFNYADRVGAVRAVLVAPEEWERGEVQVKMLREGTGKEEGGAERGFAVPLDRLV

The values are deposited in ChEMBL (CHEMBL3988442, “University of Dundee, Small-Polar-MMV Screening Library” (2021)).

The filed quantity is “Percent Effect” (%).
The record does not define 0% and 100%; most values in the screen are far below 50% and negative numbers occur (in some assays of this library far below -100).
The compounds are a random part of those screened.

MtTrpRS: 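Enzyme assay of tryptophanyl-tRNA synthetase; the read-out is not stated. Target: Tryptophan-tRNA ligase, Mycobacterium tuberculosis (UniProt P9WFT3). Compounds at 10 µM. Higher most likely means stronger inhibition; the record gives no direction and few retests gave an IC50. Of about 65,000 compounds tested this way, about 64 (0.098%) reached 50% or more in at least one test.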
ClpP1P2: 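ClpP1P2, Mycobacterium tuberculosis (UniProt P9WPC5 and UniProt P9WPC3). Protease assay of ClpP1P2, read by the AMC dye that it sets free. Compounds at 50 µM. Direction is inferred from only a few compounds that gave an IC50; most scored high, so higher reads as stronger inhibition. Most other retested compounds had strongly negative values. About 69,000 compounds were tested under these conditions; 0.015% (about 10) showed 50% or more at least once.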
TcHisRS: 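Enzyme assay of histidyl-tRNA synthetase; the read-out is not stated. Target: Histidine-tRNA ligase, Trypanosoma cruzi CL Brener (UniProt Q4DA54). Compounds at 30 µM. Higher reads as stronger inhibition (inferred: compounds with an IC50 in retests scored well above the rest). Size under these conditions: about 69,000 compounds, about 31 of them at 50% or above in at least one test.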

Result for O=c1c(-c2ccnc(NC3CCOCC3)n2)cnc2sc(Cl)cn12 was MtTrpRS: -3.97%; ClpP1P2: 0.8303%; TcHisRS: 0.3774%. CCC1c2ccccc2CCN1CCCS(C)(=O)=O (stereo not given) gave MtTrpRS: 3.783%; ClpP1P2: -11.47%; TcHisRS: 2.762%. For COCCNC(=O)c1ccc(C)c(-n2cccc2)c1 the result was MtTrpRS: -5.614%; ClpP1P2: -1.456%; TcHisRS: 0%. CC(C)(C)C(=O)Nc1ccc(Oc2ccsc2C(=O)O)cc1 gave MtTrpRS: -2.716%; ClpP1P2: -11.31%; TcHisRS: 8.333%. NC(=O)c1sc2ccccc2c1C1CCN(S(=O)(=O)N2CCOCC2)C1 (stereo not given) gave MtTrpRS: 15.72%; ClpP1P2: 4.768%; TcHisRS: 2.682%. COc1ccccc1-c1cc(C(=O)N(C)C)c2cnn(C)c2n1 gave MtTrpRS: -5.964%; ClpP1P2: -5.864%; TcHisRS: 1.775%. Result for CC(C)(C)c1cn2nc(N3CCOC(Cn4cncn4)C3)sc2n1 (stereo not given) was MtTrpRS: 0.07424%; ClpP1P2: 21.26%; TcHisRS: -2.29%. For Cc1csc(CN2CC[C@H]3C[C@@H](c4noc(C)n4)O[C@@H]3C2)n1 the result was MtTrpRS: -4.955%; ClpP1P2: -20.5%; TcHisRS: -0.8772%.

CCc1sc(C(=O)NC2CC2)cc1C read MtTrpRS: 6.155%; ClpP1P2: 17.26%; TcHisRS: -1.667%. CNS(=O)(=O)c1ccc(CNC(=O)c2cc(-c3ccccn3)no2)cc1 gave MtTrpRS: -2.02%; ClpP1P2: -2.828%; TcHisRS: 3.247%. For COCC(=O)N1CCN(c2ccc(C(=O)OC)cc2)CC1C (stereo not given) the result was MtTrpRS: 0.2283%; ClpP1P2: -3.262%; TcHisRS: 3.797%. For NS(=O)(=O)Cc1ccc(CNC(=O)NCC2CCOC2)cc1 (stereo not given) the result was MtTrpRS: -1.798%; ClpP1P2: 3.559%; TcHisRS: -2.642%. Result for COCc1cn(C2CCN(Cc3ccc(Cl)s3)CC2)nn1 was MtTrpRS: 0.7323%; ClpP1P2: -14.45%; TcHisRS: 1.681%. Result for CN(C)Cc1nnc(C(=O)N(C)Cc2ccc(C(F)(F)F)cc2)o1 was MtTrpRS: 1.107%; ClpP1P2: -1.56%; TcHisRS: 6.806%. CCCn1nc(C)c(CNC(=O)C2COc3c(cccc3OC)C2)c1C (stereo not given) read MtTrpRS: 3.043%; ClpP1P2: 0.319%; TcHisRS: -1.653%. CN(C)C(=O)C1CN(Cc2c[nH]cn2)CCN(C2CCOCC2)C1 (stereo not given) read MtTrpRS: 2.258%; ClpP1P2: -6.199%; TcHisRS: 2.703%.

For O=S(=O)(N1CCCC1)N(Cc1ccccc1)CC1CCCO1 (stereo not given) the result was MtTrpRS: -2.524%; ClpP1P2: -5.914%; TcHisRS: 3.96%. CCc1nc(CNCC2CCCN2c2cccnn2)cs1 (stereo not given) gave MtTrpRS: 0.3139%; ClpP1P2: -32.75%; TcHisRS: 4.142%. CCOC(=O)C1(NCC(=O)Nc2cc(C)ccc2OC)CCCC1 read MtTrpRS: 16.18%; ClpP1P2: -5.779%; TcHisRS: 2.646%. Result for COCCNC(=O)CN(C)CCn1nc2ccccn2c1=O was MtTrpRS: 2.886%; ClpP1P2: -17.88%; TcHisRS: 0%. For Cc1ccc(C(=O)N2CCC3(CCN(Cc4ccccn4)C3=O)C2)cn1 (stereo not given) the result was MtTrpRS: 4.888%; ClpP1P2: 19.8%; TcHisRS: -18.09%. Fc1ccc(NC2CCCN(Cc3ccncc3)C2)cc1 (stereo not given) read MtTrpRS: -4.052%; ClpP1P2: -4.763%; TcHisRS: 1.932%. Result for COc1ccc(C[C@H]2CN(C(=O)c3cscn3)CC[C@@H]2OC)cc1 was MtTrpRS: 19.48%; ClpP1P2: 13.93%; TcHisRS: 3.883%. Result for CC(C)c1nc(CNC2CCCN(c3cccnn3)C2)no1 (stereo not given) was MtTrpRS: 0.5727%; ClpP1P2: 1.047%; TcHisRS: 50.6%.

For Cn1ncc2c1NC(=O)CC2c1c(F)cccc1Cl (stereo not given) the result was MtTrpRS: 0.5424%; ClpP1P2: -14.38%; TcHisRS: -7.453%.

Once more, the final 2:

| SMILES | MtTrpRS | ClpP1P2 | TcHisRS |
|---|---|---|---|
| `CC(C)c1nc(CNC2CCCN(c3cccnn3)C2)no1` (stereo not given) | 0.5727% | 1.047% | 50.6% |
| `Cn1ncc2c1NC(=O)CC2c1c(F)cccc1Cl` (stereo not given) | 0.5424% | -14.38% | -7.453% |